Data: paper PMC9146371
Where two headings read alike, the source gives them in different places. No constants are given. Whether binding was seen depends on the method and setting. In cells and extracts the contact can be indirect. A yes stands for co-enrichment or nearness to the bait. Other partners may have been found. For part of these data: No binding means not detected with the bait. Sequences can lack the tags named with a protein.

Chains of the proteins cited; added tags and fusions are not shown. Lines headed by an entry give the natural chain unless they say otherwise; changes in a name come on top. Residues count along the entry.
UniProt O14672: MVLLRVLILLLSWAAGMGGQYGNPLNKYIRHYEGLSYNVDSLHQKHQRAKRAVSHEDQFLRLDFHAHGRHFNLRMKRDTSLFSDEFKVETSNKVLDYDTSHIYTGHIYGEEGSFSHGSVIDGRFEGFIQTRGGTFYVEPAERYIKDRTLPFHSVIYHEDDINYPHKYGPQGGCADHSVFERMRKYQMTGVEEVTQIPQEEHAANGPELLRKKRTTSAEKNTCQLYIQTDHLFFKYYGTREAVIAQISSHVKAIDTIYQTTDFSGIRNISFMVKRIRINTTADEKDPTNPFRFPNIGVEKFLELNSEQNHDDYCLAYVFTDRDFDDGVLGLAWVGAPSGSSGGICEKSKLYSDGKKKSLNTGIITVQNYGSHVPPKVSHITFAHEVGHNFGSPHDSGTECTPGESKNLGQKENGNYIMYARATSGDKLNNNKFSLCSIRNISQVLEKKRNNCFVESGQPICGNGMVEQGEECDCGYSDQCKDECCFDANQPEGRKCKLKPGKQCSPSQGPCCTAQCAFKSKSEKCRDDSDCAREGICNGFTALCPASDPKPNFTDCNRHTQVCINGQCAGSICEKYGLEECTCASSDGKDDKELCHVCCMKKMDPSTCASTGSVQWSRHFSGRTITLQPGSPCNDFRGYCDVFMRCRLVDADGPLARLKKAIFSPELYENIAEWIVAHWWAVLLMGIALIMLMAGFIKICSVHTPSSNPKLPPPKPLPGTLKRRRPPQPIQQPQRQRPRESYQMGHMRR
UniProt Q96BI3: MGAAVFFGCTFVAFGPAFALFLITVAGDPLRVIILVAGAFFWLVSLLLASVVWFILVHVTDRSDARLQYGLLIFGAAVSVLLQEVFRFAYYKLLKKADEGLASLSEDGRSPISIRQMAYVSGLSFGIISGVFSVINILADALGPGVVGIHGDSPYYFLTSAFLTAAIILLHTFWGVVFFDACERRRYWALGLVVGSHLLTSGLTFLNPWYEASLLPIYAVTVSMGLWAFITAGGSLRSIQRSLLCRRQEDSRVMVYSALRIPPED
UniProt P30532, residues 23-468: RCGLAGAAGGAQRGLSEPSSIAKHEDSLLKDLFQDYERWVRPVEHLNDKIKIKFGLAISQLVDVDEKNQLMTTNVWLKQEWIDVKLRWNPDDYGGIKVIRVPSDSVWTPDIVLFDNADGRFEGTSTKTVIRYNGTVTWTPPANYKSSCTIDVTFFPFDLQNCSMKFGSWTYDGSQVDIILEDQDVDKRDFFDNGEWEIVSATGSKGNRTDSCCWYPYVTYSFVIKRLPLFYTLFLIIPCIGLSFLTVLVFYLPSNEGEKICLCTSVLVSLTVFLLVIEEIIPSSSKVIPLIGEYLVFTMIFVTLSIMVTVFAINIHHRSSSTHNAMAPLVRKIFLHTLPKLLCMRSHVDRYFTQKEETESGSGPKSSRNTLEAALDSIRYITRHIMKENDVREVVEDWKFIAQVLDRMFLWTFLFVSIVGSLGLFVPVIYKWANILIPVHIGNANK
UniProt P08754: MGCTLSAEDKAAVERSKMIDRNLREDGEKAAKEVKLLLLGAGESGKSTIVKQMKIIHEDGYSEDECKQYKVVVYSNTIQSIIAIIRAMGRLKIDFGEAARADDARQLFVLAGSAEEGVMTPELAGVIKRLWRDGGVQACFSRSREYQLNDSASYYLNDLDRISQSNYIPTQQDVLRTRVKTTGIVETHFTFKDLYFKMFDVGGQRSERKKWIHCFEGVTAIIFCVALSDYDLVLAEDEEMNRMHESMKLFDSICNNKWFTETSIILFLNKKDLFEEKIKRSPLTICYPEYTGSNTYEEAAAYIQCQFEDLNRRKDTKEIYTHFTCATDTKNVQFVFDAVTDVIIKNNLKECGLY
UniProt P63092: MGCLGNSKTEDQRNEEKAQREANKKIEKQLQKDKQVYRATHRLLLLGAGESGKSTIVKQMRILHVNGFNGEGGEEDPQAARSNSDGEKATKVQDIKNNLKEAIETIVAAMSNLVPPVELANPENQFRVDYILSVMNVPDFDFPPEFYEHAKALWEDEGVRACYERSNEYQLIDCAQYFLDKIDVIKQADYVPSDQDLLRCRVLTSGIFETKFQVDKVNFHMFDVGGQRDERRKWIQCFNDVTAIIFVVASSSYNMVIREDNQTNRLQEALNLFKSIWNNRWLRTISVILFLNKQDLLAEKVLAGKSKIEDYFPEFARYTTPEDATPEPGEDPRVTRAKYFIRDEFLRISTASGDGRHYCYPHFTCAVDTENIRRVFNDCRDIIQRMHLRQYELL
UniProt O95858: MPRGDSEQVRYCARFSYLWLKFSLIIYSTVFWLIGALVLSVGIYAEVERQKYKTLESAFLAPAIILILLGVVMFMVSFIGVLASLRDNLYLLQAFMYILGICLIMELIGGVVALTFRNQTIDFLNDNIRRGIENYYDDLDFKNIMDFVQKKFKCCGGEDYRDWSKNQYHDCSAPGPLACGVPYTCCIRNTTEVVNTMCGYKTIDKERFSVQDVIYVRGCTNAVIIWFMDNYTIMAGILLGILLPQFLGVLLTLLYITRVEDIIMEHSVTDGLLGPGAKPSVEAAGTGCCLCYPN
UniProt P05067, residues 18-770: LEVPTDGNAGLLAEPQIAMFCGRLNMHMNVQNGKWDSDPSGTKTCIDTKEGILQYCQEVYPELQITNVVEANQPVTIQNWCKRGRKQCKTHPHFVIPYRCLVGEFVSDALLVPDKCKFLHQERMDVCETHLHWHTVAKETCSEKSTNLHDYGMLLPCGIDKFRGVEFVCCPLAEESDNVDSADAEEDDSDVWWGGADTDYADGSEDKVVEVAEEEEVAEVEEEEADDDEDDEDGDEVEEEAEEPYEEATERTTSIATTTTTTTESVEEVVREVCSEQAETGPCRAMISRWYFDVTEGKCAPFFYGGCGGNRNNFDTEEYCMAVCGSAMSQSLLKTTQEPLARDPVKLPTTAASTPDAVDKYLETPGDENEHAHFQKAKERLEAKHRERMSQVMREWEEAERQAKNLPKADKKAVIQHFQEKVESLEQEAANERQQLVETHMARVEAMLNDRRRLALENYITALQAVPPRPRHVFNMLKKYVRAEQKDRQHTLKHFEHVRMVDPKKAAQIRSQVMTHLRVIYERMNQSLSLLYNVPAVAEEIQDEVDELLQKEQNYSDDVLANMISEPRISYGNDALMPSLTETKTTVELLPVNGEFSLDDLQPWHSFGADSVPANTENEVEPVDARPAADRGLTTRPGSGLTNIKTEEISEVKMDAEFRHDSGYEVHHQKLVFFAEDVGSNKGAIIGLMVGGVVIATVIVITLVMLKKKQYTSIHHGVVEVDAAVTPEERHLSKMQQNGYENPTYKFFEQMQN
UniProt P28482: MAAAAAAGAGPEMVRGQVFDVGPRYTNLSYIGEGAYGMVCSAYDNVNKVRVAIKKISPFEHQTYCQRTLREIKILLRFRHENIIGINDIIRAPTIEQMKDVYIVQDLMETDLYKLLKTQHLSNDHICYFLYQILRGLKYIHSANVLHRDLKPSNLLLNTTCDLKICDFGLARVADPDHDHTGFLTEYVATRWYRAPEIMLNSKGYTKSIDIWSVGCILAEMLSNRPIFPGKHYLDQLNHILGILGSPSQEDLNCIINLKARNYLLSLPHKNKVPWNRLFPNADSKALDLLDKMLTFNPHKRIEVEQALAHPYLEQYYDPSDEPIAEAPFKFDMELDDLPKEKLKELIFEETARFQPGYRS
UniProt P27361: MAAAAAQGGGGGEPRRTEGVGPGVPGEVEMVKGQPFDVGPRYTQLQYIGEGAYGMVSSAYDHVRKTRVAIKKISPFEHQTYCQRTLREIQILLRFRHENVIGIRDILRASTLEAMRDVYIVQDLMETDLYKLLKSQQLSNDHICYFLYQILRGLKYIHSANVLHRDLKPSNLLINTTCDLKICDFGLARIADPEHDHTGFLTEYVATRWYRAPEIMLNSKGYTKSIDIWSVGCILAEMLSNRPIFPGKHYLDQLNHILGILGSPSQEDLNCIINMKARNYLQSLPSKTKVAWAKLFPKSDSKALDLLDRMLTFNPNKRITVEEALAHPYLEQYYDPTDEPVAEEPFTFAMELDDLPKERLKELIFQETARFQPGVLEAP
UniProt Q92542, residues 34-709: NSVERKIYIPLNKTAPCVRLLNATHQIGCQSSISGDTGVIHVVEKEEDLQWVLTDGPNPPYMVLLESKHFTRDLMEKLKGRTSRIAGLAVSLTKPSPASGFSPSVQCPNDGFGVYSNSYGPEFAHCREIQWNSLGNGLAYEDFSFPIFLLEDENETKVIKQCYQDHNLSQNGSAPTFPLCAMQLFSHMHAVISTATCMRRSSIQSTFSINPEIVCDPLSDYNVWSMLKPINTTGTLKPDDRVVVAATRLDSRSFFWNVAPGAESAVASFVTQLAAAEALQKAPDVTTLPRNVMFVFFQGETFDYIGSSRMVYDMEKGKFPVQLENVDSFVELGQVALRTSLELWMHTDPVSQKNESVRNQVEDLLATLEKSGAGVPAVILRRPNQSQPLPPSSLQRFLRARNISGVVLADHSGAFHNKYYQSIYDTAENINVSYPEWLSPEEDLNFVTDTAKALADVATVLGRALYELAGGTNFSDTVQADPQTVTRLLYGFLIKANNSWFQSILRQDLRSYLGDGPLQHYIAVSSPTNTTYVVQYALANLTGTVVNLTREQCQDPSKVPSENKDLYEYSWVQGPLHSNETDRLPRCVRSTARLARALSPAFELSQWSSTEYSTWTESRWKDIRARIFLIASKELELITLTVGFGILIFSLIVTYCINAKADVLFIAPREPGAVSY
UniProt P35523: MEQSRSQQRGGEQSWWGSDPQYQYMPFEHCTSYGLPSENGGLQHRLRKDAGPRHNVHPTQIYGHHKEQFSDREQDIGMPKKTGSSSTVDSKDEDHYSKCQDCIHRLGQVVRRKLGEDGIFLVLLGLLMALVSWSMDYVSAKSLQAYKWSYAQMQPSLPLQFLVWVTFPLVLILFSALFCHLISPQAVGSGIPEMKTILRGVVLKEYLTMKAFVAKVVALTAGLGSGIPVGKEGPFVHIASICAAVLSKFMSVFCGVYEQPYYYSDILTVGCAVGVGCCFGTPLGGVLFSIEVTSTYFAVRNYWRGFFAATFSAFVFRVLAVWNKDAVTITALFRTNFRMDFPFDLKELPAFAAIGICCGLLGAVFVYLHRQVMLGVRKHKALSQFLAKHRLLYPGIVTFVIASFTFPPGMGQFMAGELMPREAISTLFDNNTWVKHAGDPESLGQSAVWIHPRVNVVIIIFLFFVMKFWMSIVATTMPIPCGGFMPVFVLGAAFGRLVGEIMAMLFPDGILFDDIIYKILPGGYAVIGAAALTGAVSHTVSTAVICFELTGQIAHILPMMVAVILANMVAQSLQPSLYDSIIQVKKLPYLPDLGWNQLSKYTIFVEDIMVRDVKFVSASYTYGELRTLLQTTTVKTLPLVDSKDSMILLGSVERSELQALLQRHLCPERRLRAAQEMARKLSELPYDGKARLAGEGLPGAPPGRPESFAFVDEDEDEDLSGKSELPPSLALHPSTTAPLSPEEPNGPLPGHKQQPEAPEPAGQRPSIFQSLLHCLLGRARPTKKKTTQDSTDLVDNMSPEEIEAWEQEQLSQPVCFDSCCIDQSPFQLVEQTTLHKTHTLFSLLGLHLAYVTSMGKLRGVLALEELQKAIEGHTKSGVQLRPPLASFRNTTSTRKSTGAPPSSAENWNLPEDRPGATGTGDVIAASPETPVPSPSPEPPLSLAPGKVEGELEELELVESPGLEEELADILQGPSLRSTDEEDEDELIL

Columns and labels:
Experiment in all cases: affinity purification with mass spectrometry; tandem affinity purification (TAP): SF-tagged VLGR1 bait overexpressed in HEK293T cells for 48 h; cleared lysate purified in two steps on Strep-Tactin Superflow beads and anti-FLAG M2 agarose, eluted with desthiobiotin and FLAG peptide; LC-MS/MS; proteins also found in mock-treated cells not considered
[1] = target: T1, SF-C-VLGR1_CTF (C-terminally Strep II-FLAG-tagged C-terminal fragment of VLGR1) (human) (UniProt Q8WXG9)
T1 sequence: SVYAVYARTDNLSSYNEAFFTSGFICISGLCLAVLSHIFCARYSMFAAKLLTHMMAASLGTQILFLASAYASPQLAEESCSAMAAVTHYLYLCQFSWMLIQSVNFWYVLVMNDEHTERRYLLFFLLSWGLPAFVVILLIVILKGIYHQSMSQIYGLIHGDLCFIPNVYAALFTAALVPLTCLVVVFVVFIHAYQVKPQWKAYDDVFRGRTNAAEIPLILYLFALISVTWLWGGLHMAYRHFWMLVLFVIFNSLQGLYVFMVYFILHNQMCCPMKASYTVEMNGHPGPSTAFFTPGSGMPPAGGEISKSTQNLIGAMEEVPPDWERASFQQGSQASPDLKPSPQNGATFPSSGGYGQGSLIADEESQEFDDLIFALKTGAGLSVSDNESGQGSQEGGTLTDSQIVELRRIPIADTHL

[2] = target: T2, VLGR1_CTF bait of the VLGR1_CTF TAPs (SF tag at the N- or the C-terminus, not told) (human) (UniProt Q8WXG9)
T2 sequence: T1 sequence

[3] = target: T3, SF-N-VLGR1_CTF (N-terminally Strep II-FLAG-tagged C-terminal fragment of VLGR1) (human) (UniProt Q8WXG9)
T3 sequence: T1 sequence

[4] = target: T4, SF-N-VLGR1_ICD (Strep II-FLAG-tagged intracellular domain of VLGR1) (human) (UniProt Q8WXG9)
T4 sequence: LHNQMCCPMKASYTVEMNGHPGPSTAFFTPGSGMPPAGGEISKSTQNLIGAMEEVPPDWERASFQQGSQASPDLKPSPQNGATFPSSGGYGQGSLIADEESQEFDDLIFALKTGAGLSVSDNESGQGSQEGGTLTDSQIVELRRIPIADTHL

[5] = target: T4, SF-N-VLGR1_ICD (Strep II-FLAG-tagged intracellular domain of VLGR1) (human); remark: listed apart in the source
[6] = target: T2, VLGR1_CTF bait of the VLGR1_CTF TAPs (SF tag at the N- or the C-terminus, not told) (human); remark: listed apart in the source
[7] = target: T3, SF-N-VLGR1_CTF (N-terminally Strep II-FLAG-tagged C-terminal fragment of VLGR1) (human); remark: listed apart in the source
[8] = target: T1, SF-C-VLGR1_CTF (C-terminally Strep II-FLAG-tagged C-terminal fragment of VLGR1) (human); remark: listed apart in the source

In the case of ADAM10 (from UniProt O14672), the binding [1] is reported as “binds”.

For APH1A (from UniProt Q96BI3 1-265), the binding [1] was “binds”.

In the case of CHRNA5 (from UniProt P30532 23-468), the binding [2] is reported as “binds”.

“Gαi3 (GNAI3) (from UniProt P08754 1-354)” was tested, and the binding [3] was “binds” and the binding [1] was “binds”.

With Gαs (GNAS) (from UniProt P63092 1-394) the binding [3] was “no binding” and the binding [1] was “no binding”.

For TSPAN15 (from UniProt O95858 1-294), the binding [1] was “binds”.

With “amyloid precursor protein (APP) (from UniProt P05067 18-770)” the binding [3] was “binds”.

With “mitogen-activated protein kinase MAPK1 (from UniProt P28482 1-360)” the binding [4] was “binds”.

With “mitogen-activated protein kinase MAPK3 (from UniProt P27361 1-379)” the binding [4] was “binds”.

For “nicastrin (NCSTN) (from UniProt Q92542 34-709)”, the binding [1] was “binds”.

“presenilin PSEN2 (from UniProt P49810 1-448)” was tested, and the binding [1] was “binds”.

“voltage-gated Cl- channel CLCN1 (from UniProt P35523 1-988)” was tested, and the binding [2] was “binds”.

B1: whirlin (DFNB31/USH2D) (protein, UniProt Q9P202 1-907)
chain: MNAPLDGLSVSSSSTGSLGSAAGAGGGGGAGLRLLSANVRQLHQALTALLSEAEREQFTHCLNAYHARRNVFDLVRTLRVLLDSPVKRRLLPMLRLVIPRSDQLLFDQYTAEGLYLPATTPYRQPAWGGPDSAGPGEVRLVSLRRAKAHEGLGFSIRGGSEHGVGIYVSLVEPGSLAEKEGLRVGDQILRVNDKSLARVTHAEAVKALKGSKKLVLSVYSAGRIPGGYVTNHIYTWVDPQGRSISPPSGLPQPHGGALRQQEGDRRSTLHLLQGGDEKKVNLVLGDGRSLGLTIRGGAEYGLGIYITGVDPGSEAEGSGLKVGDQILEVNGRSFLNILHDEAVRLLKSSRHLILTVKDVGRLPHARTTVDETKWIASSRIRETMANSAGFLGDLTTEGINKPGFYKGPAGSQVTLSSLGNQTRVLLEEQARHLLNEQEHATMAYYLDEYRGGSVSVEALVMALFKLLNTHAKFSLLSEVRGTISPQDLERFDHLVLRREIESMKARQPPGPGAGDTYSMVSYSDTGSSTGSHGTSTTVSSARNTLDLEETGEAVQGNINALPDVSVDDVRSTSQGLSSFKPLPRPPPLAQGNDLPLGQPRKLGREDLQPPSSMPSCSGTVFSAPQNRSPPAGTAPTPGTSSAQDLPSSPIYASVSPANPSSKRPLDAHLALVNQHPIGPFPRVQSPPHLKSPSAEATVAGGCLLPPSPSGHPDQTGTNQHFVMVEVHRPDSEPDVNEVRALPQTRTASTLSQLSDSGQTLSEDSGVDAGEAEASAPGRGRQSVSTKSRSSKELPRNERPTDGANKPPGLLEPTSTLVRVKKSAATLGIAIEGGANTRQPLPRIVTIQRGGSAHNCGQLKVGHVILEVNGLTLRGKEHREAARIIAEAFKTKDRDYIDFLVTEFNVML
For B1, the binding [5] was “binds”.

B2: voltage-gated Cl- channel CLCN7 (protein, UniProt P51798 1-805)
chain: MANVSKKVSWSGRDRDDEEAAPLLRRTARPGGGTPLLNGAGPGAARQSPRSALFRVGHMSSVELDDELLDPDMDPPHPFPKEIPHNEKLLSLKYESLDYDNSENQLFLEEERRINHTAFRTVEIKRWVICALIGILTGLVACFIDIVVENLAGLKYRVIKGNIDKFTEKGGLSFSLLLWATLNAAFVLVGSVIVAFIEPVAAGSGIPQIKCFLNGVKIPHVVRLKTLVIKVSGVILSVVGGLAVGKEGPMIHSGSVIAAGISQGRSTSLKRDFKIFEYFRRDTEKRDFVSAGAAAGVSAAFGAPVGGVLFSLEEGASFWNQFLTWRIFFASMISTFTLNFVLSIYHGNMWDLSSPGLINFGRFDSEKMAYTIHEIPVFIAMGVVGGVLGAVFNALNYWLTMFRIRYIHRPCLQVIEAVLVAAVTATVAFVLIYSSRDCQPLQGGSMSYPLQLFCADGEYNSMAAAFFNTPEKSVVSLFHDPPGSYNPLTLGLFTLVYFFLACWTYGLTVSAGVFIPSLLIGAAWGRLFGISLSYLTGAAIWADPGKYALMGAAAQLGGIVRMTLSLTVIMMEATSNVTYGFPIMLVLMTAKIVGDVFIEGLYDMHIQLQSVPFLHWEAPVTSHSLTAREVMSTPVTCLRRREKVGVIVDVLSDTASNHNGFPVVEHADDTQPARLQGLILRSQLIVLLKHKVFVERSNLGLVQRRLRLKDFRDAYPRFPPIQSIHVSQDERECTMDLSEFMNPSPYTVPQEASLPRVFKLFRALGLRHLVVVDNRNQVVGLVTRKDLARYRLGKRGLEELSLAQT
With B2 the binding [6] was “binds”.

B3: NIPA2 (non-imprinted in the Prader-Willi/Angelman syndrome region protein 2) (protein, UniProt Q8N8Q9 1-360)
chain: MSQGRGKYDFYIGLGLAMSSSIFIGGSFILKKKGLLRLARKGSMRAGQGGHAYLKEWLWWAGLLSMGAGEVANFAAYAFAPATLVTPLGALSVLVSAILSSYFLNERLNLHGKIGCLLSILGSTVMVIHAPKEEEIETLNEMSHKLGDPGFVVFATLVVIVALILIFVVGPRHGQTNILVYITICSVIGAFSVSCVKGLGIAIKELFAGKPVLRHPLAWILLLSLIVCVSTQINYLNRALDIFNTSIVTPIYYVFFTTSVLTCSAILFKEWQDMPVDDVIGTLSGFFTIIVGIFLLHAFKDVSFSLASLPVSFRKDEKAMNGNLSNMYEVLNNNEESLTCGIEQHTGENVSRRNGNLTAF
With B3 the binding [7] was “binds” and the binding [8] was “binds”.

B4: harmonin (USH1C) (protein, UniProt Q9Y6N9 1-552)
chain: MDRKVAREFRHKVDFLIENDAEKDYLYDVLRMYHQTMDVAVLVGDLKLVINEPSRLPLFDAIRPLIPLKHQVEYDQLTPRRSRKLKEVRLDRLHPEGLGLSVRGGLEFGCGLFISHLIKGGQADSVGLQVGDEIVRINGYSISSCTHEEVINLIRTKKTVSIKVRHIGLIPVKSSPDEPLTWQYVDQFVSESGGVRGSLGSPGNRENKEKKVFISLVGSRGLGCSISSGPIQKPGIFISHVKPGSLSAEVGLEIGDQIVEVNGVDFSNLDHKEAVNVLKSSRSLTISIVAAAGRELFMTDRERLAEARQRELQRQELLMQKRLAMESNKILQEQQEMERQRRKEIAQKAAEENERYRKEMEQIVEEEEKFKKQWEEDWGSKEQLLLPKTITAEVHPVPLRKPKYDQGVEPELEPADDLDGGTEEQGEQDFRKYEEGFDPYSMFTPEQIMGKDVRLLRIKKEGSLDLALEGGVDSPIGKVVVSAVYERGAAERHGGIVKGDEIMAINGKIVTDYTLAEAEAALQKAWNQGGDWIDLVVAVCPPKEYDDELTFF
With B4 the binding [5] was “binds”.

B5: ephrin beta 1 (EFNB1) (protein, UniProt P98172 28-346)
chain: LAKNLEPVSWSSLNPKFLSGKGLVIYPKIGDKLDIICPRAEAGRPYEYYKLYLVRPEQAAACSTVLDPNVLVTCNRPEQEIRFTIKFQEFSPNYMGLEFKKHHDYYITSTSNGSLEGLENREGGVCRTRTMKIIMKVGQDPNAVTPEQLTTSRPSKEADNTVKMATQAPGSRGSLGDSDGKHETVNQEEKSGPGASGGSSGDPDGFFNSKVALFAAVGAGCVIFLLIIIFLTVLLLKLRKRHRKHTQQRAAALSLSTLASPKGGSGTAGTEPSDIIIPLRTTENNYCPHYEKVSGDYGHPVYIVQEMPPQSPANIYYKV
For B5, the binding [8] was “binds”.

B6: SYNJ2BP (protein, UniProt P57105 1-145)
chain: MNGRVDYLVTEEEINLTRGPSGLGFNIVGGTDQQYVSNDSGIYVSRIKENGAAALDGRLQEGDKILSVNGQDLKNLLHQDAVDLFRNAGYAVSLRVQHRLQVQNGPIGHRGEGDPSGIPIFMVLVPVFALTMVAAWAFMRYRQQL
With B6 the binding [8] was “binds”.
